{"source": "PubChem BioAssay AID1508597 (Cure First, 2020)", "screen": "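Knock-downs altering ovarian cancer cell survival with or without PARP inhibitor rucaparib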 (primary screen)", "cell system": "human ovarian carcinoma lines grown from tumours: OCI-P5x (papillary serous) and OCI-C5x (clear cell)", "reagents": "siRNA pool against human genes, 1.25 pmol siRNA per well", "time to read-out": "72 h or 96 h, depending on the cell culture", "treatment": "rucaparib 20 µM (about IC30) or vehicle, present until read-out", "rucaparib or vehicle": "Rucaparib", "cell line": "OCI-C5x (clear cell)", "read-out": "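Luminescent ATP-based viability assay read 72 or 96 h after transfection, depending on culture, given as normalised percent viability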", "reading the numbers": "viability, normalised: higher = more viable cells remaining", "call rule": "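a well counts as a hit if its normalised viability is under 80 percent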", "meaning of the calls": "active = viability under 80%; inactive = viability 80% or more", "note": "This is an unselected part of the about 2,100 reagents, under one of the conditions tested. 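Calls flag viability under 80% in either arm, not effects specific to rucaparib; the reference for percent is not stated.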 A reagent listed more than once was tested more than once; the source does not tell the runs apart. No sequences are given here. Not given: the 100% reference."}
{"gene symbol":"CDH2 (GeneID 1000)","technical replicate":"1","viability, normalised (%)":92.7,"Call":"inactive"}
{"gene symbol":"CDH2 (GeneID 1000)","technical replicate":"2","viability, normalised (%)":76,"Call":"active"}
{"gene symbol":"CDH2 (GeneID 1000)","technical replicate":"3","viability, normalised (%)":51.8,"Call":"active"}
{"gene symbol":"BRD3 (GeneID 8019)","technical replicate":"1","viability, normalised (%)":23.7,"Call":"active"}
{"gene symbol":"BRD3 (GeneID 8019)","technical replicate":"1","viability, normalised (%)":55,"Call":"active"}
{"gene symbol":"BRD3 (GeneID 8019)","technical replicate":"2","viability, normalised (%)":11.8,"Call":"active"}
{"gene symbol":"BRD3 (GeneID 8019)","technical replicate":"2","viability, normalised (%)":39.5,"Call":"active"}
{"gene symbol":"BRD3 (GeneID 8019)","technical replicate":"3","viability, normalised (%)":26.3,"Call":"active"}
{"gene symbol":"BRD3 (GeneID 8019)","technical replicate":"3","viability, normalised (%)":14,"Call":"active"}
{"gene symbol":"MAPK10 (GeneID 5602)","technical replicate":"1","viability, normalised (%)":47.1,"Call":"active"}
{"gene symbol":"MAPK10 (GeneID 5602)","technical replicate":"2","viability, normalised (%)":65.1,"Call":"active"}
{"gene symbol":"MAPK10 (GeneID 5602)","technical replicate":"3","viability, normalised (%)":60,"Call":"active"}
{"gene symbol":"NADK (GeneID 65220)","technical replicate":"1","viability, normalised (%)":68.4,"Call":"active"}
{"gene symbol":"NADK (GeneID 65220)","technical replicate":"2","viability, normalised (%)":70,"Call":"active"}
{"gene symbol":"NADK (GeneID 65220)","technical replicate":"3","viability, normalised (%)":66,"Call":"active"}
{"gene symbol":"MERTK (GeneID 10461)","technical replicate":"1","viability, normalised (%)":45.9,"Call":"active"}
{"gene symbol":"MERTK (GeneID 10461)","technical replicate":"2","viability, normalised (%)":51.8,"Call":"active"}
{"gene symbol":"MERTK (GeneID 10461)","technical replicate":"3","viability, normalised (%)":37.5,"Call":"active"}
{"gene symbol":"TBK1 (GeneID 29110)","technical replicate":"1","viability, normalised (%)":66,"Call":"active"}
{"gene symbol":"TBK1 (GeneID 29110)","technical replicate":"2","viability, normalised (%)":70.6,"Call":"active"}
{"gene symbol":"TBK1 (GeneID 29110)","technical replicate":"3","viability, normalised (%)":49.5,"Call":"active"}

Targets above whose gene name starts with N or n:
{"gene symbol":"NADK (GeneID 65220)","technical replicate":"1","viability, normalised (%)":68.4,"Call":"active"}
{"gene symbol":"NADK (GeneID 65220)","technical replicate":"2","viability, normalised (%)":70,"Call":"active"}
{"gene symbol":"NADK (GeneID 65220)","technical replicate":"3","viability, normalised (%)":66,"Call":"active"}
